{"sequences": {"note": "Chains of the proteins cited; added tags and fusions are not shown. Residues count along the entry.", "UniProt P31751": "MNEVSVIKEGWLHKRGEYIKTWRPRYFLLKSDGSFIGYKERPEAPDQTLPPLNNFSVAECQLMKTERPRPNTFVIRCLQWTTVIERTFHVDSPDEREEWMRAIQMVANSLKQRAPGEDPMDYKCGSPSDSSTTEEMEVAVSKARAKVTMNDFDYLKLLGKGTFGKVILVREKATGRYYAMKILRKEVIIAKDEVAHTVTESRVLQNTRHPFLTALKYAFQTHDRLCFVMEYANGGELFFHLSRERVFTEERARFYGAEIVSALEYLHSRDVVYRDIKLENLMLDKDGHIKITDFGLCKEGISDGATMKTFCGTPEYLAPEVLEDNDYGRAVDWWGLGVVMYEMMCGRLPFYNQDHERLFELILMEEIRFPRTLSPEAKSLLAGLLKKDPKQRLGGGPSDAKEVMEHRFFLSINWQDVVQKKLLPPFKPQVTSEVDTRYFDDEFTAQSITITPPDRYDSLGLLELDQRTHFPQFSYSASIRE", "UniProt P11021, residues 19-654": "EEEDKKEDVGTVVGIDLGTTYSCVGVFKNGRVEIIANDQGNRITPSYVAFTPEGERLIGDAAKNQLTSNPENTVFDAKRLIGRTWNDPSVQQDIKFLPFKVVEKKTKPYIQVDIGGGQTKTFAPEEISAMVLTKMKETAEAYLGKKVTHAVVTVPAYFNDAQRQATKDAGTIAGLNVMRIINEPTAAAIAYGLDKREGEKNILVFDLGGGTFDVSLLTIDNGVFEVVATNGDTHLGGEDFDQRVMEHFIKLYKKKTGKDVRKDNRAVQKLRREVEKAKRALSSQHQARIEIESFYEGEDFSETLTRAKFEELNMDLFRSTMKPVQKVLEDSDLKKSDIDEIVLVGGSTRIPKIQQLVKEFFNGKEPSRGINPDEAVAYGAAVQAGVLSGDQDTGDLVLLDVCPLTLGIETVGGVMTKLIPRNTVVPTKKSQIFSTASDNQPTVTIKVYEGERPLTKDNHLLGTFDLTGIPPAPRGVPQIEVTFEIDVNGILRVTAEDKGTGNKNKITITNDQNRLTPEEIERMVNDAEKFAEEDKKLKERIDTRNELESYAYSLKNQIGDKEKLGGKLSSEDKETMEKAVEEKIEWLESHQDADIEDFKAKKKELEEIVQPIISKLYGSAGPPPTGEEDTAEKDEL", "UniProt P04406": "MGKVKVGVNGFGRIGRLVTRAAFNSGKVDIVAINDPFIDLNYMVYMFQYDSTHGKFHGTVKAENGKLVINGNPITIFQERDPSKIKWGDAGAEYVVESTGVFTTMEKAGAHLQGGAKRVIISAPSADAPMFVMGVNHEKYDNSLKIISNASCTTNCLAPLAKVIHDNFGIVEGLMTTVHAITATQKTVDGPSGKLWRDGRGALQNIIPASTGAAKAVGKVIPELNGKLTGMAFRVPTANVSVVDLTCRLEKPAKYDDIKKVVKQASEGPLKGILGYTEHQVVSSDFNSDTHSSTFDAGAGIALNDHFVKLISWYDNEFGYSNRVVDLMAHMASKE", "UniProt P11142": "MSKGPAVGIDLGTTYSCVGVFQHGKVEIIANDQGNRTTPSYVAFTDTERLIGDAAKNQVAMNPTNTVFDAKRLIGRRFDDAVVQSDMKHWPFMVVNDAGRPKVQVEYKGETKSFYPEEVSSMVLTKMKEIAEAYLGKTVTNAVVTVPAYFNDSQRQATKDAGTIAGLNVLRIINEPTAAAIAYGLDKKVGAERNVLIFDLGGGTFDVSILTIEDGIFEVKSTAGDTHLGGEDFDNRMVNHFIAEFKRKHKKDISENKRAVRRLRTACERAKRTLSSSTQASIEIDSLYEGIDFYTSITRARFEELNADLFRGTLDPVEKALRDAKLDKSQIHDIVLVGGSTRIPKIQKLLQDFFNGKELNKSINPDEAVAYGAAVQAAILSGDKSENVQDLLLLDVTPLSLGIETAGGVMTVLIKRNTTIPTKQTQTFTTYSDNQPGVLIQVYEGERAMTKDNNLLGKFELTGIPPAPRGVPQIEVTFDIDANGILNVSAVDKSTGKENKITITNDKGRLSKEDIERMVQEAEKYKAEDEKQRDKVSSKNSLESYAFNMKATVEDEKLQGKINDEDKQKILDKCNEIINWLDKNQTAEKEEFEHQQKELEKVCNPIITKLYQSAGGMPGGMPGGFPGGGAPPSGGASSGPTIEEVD", "UniProt P54652": "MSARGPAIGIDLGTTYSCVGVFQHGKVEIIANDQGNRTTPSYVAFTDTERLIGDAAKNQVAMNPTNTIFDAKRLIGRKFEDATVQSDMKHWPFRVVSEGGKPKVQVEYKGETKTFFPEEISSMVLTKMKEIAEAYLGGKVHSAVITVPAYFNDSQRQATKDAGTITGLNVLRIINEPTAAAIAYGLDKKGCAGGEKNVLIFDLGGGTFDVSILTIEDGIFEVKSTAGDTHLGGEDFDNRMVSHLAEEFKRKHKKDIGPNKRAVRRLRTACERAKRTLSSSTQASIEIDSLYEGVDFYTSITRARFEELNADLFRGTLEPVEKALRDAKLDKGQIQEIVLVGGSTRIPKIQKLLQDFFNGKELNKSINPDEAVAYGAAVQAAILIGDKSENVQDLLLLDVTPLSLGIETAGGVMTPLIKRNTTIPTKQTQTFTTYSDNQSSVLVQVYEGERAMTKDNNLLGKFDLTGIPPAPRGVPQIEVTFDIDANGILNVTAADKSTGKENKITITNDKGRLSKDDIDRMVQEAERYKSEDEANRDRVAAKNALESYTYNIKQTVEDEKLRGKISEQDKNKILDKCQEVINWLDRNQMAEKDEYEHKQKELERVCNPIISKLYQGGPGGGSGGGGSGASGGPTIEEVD", "UniProt P0DMV8": "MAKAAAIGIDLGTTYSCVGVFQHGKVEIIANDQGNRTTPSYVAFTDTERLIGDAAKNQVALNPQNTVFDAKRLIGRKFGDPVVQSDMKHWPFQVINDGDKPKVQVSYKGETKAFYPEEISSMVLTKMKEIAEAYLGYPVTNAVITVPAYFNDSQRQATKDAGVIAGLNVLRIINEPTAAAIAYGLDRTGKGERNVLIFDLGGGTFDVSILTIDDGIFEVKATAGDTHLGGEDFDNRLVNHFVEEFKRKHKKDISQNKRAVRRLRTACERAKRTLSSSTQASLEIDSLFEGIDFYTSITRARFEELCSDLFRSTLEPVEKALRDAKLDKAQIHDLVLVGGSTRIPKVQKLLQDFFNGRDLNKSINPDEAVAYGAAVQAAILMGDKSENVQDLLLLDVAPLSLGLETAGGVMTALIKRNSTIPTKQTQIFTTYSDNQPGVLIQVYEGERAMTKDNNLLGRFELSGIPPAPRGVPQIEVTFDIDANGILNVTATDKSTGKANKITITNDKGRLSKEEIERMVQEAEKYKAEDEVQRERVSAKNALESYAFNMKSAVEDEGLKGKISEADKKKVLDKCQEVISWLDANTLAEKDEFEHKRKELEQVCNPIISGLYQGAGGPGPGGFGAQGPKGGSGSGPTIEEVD", "UniProt Q58FF7": "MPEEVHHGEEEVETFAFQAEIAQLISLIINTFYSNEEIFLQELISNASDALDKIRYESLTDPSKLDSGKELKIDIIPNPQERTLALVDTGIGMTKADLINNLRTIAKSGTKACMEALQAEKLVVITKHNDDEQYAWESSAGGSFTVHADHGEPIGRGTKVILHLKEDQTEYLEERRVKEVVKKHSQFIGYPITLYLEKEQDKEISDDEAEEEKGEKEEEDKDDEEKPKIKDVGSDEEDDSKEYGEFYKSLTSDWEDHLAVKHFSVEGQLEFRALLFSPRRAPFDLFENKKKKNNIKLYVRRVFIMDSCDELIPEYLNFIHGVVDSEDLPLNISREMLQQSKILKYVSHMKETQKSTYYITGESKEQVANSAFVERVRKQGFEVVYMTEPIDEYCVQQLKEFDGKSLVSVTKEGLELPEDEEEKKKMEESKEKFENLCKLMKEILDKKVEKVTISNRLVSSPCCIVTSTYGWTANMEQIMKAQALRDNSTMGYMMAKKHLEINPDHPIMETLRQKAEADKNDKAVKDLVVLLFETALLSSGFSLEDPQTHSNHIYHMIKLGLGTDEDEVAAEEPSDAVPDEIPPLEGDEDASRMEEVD", "UniProt P38646, residues 47-679": "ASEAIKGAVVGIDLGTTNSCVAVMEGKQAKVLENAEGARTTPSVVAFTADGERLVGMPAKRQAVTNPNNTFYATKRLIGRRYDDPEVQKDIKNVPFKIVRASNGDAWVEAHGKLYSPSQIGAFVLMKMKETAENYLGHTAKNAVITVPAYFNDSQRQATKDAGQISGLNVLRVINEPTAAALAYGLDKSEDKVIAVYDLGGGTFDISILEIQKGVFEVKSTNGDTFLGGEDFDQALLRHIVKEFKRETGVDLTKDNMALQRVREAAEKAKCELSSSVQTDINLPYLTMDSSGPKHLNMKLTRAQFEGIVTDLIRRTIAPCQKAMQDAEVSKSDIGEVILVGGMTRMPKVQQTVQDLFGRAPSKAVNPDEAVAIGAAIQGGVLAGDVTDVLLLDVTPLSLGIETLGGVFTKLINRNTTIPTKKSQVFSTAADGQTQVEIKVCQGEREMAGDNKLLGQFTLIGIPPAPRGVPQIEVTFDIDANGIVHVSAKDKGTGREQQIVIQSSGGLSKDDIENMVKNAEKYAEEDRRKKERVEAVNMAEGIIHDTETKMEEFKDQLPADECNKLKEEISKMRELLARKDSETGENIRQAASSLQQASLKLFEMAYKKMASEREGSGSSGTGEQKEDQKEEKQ", "UniProt Q58FF8": "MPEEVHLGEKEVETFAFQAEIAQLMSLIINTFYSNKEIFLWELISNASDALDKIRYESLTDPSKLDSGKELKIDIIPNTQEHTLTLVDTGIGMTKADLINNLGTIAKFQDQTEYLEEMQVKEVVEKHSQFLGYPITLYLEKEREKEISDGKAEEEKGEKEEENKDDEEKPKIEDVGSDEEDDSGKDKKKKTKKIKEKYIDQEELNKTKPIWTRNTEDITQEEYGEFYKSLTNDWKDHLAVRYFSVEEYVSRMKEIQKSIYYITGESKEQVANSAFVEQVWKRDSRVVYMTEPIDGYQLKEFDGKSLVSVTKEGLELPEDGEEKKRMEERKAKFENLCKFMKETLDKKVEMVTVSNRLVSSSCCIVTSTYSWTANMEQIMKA", "UniProt P34931": "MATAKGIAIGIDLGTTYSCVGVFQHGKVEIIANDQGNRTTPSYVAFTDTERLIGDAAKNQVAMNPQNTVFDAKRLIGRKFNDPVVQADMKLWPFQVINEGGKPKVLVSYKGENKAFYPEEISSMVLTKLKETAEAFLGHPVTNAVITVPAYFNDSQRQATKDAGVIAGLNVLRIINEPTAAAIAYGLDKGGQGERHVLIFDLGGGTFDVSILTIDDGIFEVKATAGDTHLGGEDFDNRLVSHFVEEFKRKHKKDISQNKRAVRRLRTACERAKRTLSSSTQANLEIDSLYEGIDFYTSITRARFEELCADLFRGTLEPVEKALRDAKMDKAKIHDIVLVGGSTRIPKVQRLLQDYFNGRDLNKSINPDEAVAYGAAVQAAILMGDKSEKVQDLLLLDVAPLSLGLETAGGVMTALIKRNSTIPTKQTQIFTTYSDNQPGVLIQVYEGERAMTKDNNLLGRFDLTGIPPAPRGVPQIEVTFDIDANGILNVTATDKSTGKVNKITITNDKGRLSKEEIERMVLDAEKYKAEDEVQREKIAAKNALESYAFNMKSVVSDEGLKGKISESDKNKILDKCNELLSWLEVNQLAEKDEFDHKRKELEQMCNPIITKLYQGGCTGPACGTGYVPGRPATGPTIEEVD", "UniProt P10809, residues 27-573": "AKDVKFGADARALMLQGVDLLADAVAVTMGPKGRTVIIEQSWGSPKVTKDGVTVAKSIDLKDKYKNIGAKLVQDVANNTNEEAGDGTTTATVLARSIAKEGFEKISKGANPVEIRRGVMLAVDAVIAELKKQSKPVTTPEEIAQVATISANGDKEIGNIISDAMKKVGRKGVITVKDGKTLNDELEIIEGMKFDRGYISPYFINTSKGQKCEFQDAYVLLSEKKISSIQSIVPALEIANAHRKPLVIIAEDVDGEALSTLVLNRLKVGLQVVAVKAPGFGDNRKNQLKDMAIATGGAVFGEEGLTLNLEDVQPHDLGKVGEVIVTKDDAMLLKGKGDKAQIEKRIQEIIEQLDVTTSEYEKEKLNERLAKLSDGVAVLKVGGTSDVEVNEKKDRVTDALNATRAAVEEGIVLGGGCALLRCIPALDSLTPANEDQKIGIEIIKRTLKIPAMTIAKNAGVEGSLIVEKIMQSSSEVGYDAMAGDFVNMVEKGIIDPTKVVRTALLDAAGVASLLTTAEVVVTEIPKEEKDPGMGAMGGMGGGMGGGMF", "UniProt Q9BQA1": "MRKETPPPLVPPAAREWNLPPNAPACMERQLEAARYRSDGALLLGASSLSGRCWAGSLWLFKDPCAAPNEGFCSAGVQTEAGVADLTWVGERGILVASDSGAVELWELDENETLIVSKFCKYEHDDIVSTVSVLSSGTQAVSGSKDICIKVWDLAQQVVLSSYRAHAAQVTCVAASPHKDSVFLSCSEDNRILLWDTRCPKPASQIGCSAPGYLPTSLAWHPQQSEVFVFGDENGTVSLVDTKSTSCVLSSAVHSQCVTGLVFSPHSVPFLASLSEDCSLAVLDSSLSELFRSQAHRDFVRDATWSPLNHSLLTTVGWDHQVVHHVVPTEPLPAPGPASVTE"}, "source": "paper PMC3688836", "note": "No constants are given. Whether binding was seen depends on the method and setting. In cells and extracts the contact can be indirect. Here binding means that the protein was enriched with, or labelled near, the bait; the list need not be complete. For some assays here: No binding means not detected with the bait.", "data": [{"molecular_target": "AKT2-NTag (AKT2 N-terminally fused with a TAP-Tag consisting of HA-Tag, StrepII-Tag and FLAG-Tag) (UniProt P31751)", "assay": "affinity purification with mass spectrometry; tandem affinity purification (anti-FLAG M2 gel, triple-FLAG peptide elution, then Strep-Tactin Sepharose, biotin elution) from lysates of HEK293T cells stably expressing AKT2-NTag; SDS-PAGE, silver staining, in-gel digest, nano-LC-MS/MS; six independent TAPs; wild type cells as control", "values": [{"molecule": "78 kDa glucose regulated protein (from UniProt P11021 19-654)", "binding": "binds"}, {"molecule": "α-enolase (from UniProt P06733 1-434)", "binding": "binds"}, {"molecule": "Glyceraldehyde-3-phosphate-dehydrogenase (from UniProt P04406 1-335)", "binding": "binds"}, {"molecule": "Endoplasmin (from UniProt P14625 22-803)", "binding": "binds"}]}, {"molecular_target": "AKT2-NTag (AKT2 N-terminally fused with a TAP-Tag consisting of HA-Tag, StrepII-Tag and FLAG-Tag) (UniProt P31751)", "assay": "affinity purification with mass spectrometry; SILAC-TAP: heavy (13C6 Lys/Arg) AKT2-NTag HEK293T cells and light wild type cells, lysates mixed 1:1 before (MBP) or eluates after (MAP) tandem affinity purification; in-solution digest, 2-D LC-MS/MS; two MAP and two MBP", "values": [{"molecule": "78 kDa glucose regulated protein (from UniProt P11021 19-654)", "binding": "binds weakly"}, {"molecule": "Heat shock cognate 71 kDa protein (from UniProt P11142 1-646)", "binding": "binds"}, {"molecule": "Heat shock-related 70 kDa protein 2 (from UniProt P54652 1-639)", "binding": "binds"}, {"molecule": "Heat shock 70 kDa protein 1 (from UniProt P0DMV8 1-641)", "binding": "binds"}, {"molecule": "Putative heat shock protein HSP 90-beta-3 (from UniProt Q58FF7 1-597)", "binding": "binds"}, {"molecule": "Stress 70 protein, mitochondrial (from UniProt P38646 47-679)", "binding": "binds"}, {"molecule": "Putative heat shock protein HSP 90-beta 2 (from UniProt Q58FF8 1-381)", "binding": "binds"}, {"molecule": "Heat shock 70 kDa protein 1L (from UniProt P34931 1-641)", "binding": "binds"}, {"molecule": "60 kDa heat shock protein, mitochondrial (from UniProt P10809 27-573)", "binding": "binds"}, {"molecule": "methylosome protein 50 (from UniProt Q9BQA1 1-342)", "binding": "no binding"}, {"molecule": "Heat shock protein HSP 90-alpha (from UniProt P07900 1-732)", "binding": "binds"}, {"molecule": "Cdc37 (protein, UniProt Q16543 1-378) MVDYSVWDHIEVSDDEDETHPNIDTASLFRWRHQARVERMEQFQKEKEELDRGCRECKRKVAECQRKLKELEVAEGGKAELERLQAEAQQLRKEERSWEQKLEEMRKKEKSMPWNVDTLSKDGFSKSMVNTKPEKTEEDSEEVREQKHKTFVEKYEKQIKHFGMLRRWDDSQKYLSDNVHLVCEETANYLVIWCIDLEVEEKCALMEQVAHQTIVMQFILELAKSLKVDPRACFRQFFTKIKTADRQYMEGFNDELEAFKERVRGRAKLRIEKAMKEYEEEERKKRLGPGGLDPVEVYESLPEELQKCFDVKDVQMLQDAISKMDPTDAKYHMQRCIDSGLWVPNSKASEAKEGEEAGPGDPLLEAVPKTGDEKDVSV", "binding": "binds"}]}, {"molecular_target": "AKT2-NTag (AKT2 N-terminally fused with a TAP-Tag consisting of HA-Tag, StrepII-Tag and FLAG-Tag) (UniProt P31751)", "assay": "affinity purification with mass spectrometry; tandem affinity purification (anti-FLAG M2 gel, triple-FLAG peptide elution, then Strep-Tactin Sepharose, biotin elution) from lysates of HEK293T cells stably expressing AKT2-NTag; SDS-PAGE, silver staining, in-gel digest, nano-LC-MS/MS; six independent TAPs; wild type cells as control", "remark": "another data set of the same source", "values": [{"molecule": "Cdc37 (protein, UniProt Q16543 1-378) MVDYSVWDHIEVSDDEDETHPNIDTASLFRWRHQARVERMEQFQKEKEELDRGCRECKRKVAECQRKLKELEVAEGGKAELERLQAEAQQLRKEERSWEQKLEEMRKKEKSMPWNVDTLSKDGFSKSMVNTKPEKTEEDSEEVREQKHKTFVEKYEKQIKHFGMLRRWDDSQKYLSDNVHLVCEETANYLVIWCIDLEVEEKCALMEQVAHQTIVMQFILELAKSLKVDPRACFRQFFTKIKTADRQYMEGFNDELEAFKERVRGRAKLRIEKAMKEYEEEERKKRLGPGGLDPVEVYESLPEELQKCFDVKDVQMLQDAISKMDPTDAKYHMQRCIDSGLWVPNSKASEAKEGEEAGPGDPLLEAVPKTGDEKDVSV", "binding": "binds"}]}]}
